# Measured values from PubChem BioAssay AID1487 (National Center for Advancing Translational Sciences (NCATS), 2009).
# The campaign covered roughly 200,000 compounds. About 25 (0.01%) were called active. The shares of active, inactive and inconclusive entries below differ from those in the screen. Calls follow the shape of the dose curve; as a rule, active = well fitted inhibition curve with a large enough effect in the signal ratio, with a control signal flat (not every such curve was filed as active); inconclusive = small, poorly fitted or top-dose-only effect, or effect the other way, or a change in a side signal; inactive = flat fitted curve, though single readings scatter; the % refers to the signal ratio. Where the call is inconclusive, the potency comes from a doubtful curve fit.
# Assay: qHTS Assay for Modulators of Lamin A Splicing
# Details: HeLa LMNA splicing GFP/RFP minigene ratio, 48 h; ratio change, negative = inhibition: at 46.1 µM (top of the series) unless noted
# Outline: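 S3 HeLa cells stably expressing lamin A-EGFP splicing minigene plus DsRed2, 600 cells/well, 48 h compound exposure at 37C. Laser-scanning cytometry; analysed as GFP (500-530 nm)/RFP (575-640 nm) total intensity ratio; 0.5% DMSO vehicle.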
# % is scaled to controls: 0 for no effect and ±100 for the full control effect; potency is read from the fitted curve at half-maximal effect.
SMILES,"ratio change, negative = inhibition",Potency
Cc1c2c(nc3ccccc13)OCC2,inconclusive: -51.6%,
CC(NC(=O)c1cccc(NC(=O)c2nsc3ccccc23)c1)c1ccccc1 (centres undefined),inconclusive: -4.71% [at 46 µM],
CC(C)(C)c1ccc(C(=O)N2CCC(C(=O)NCCC3=CCCCC3)CC2)cc1,inactive,
O=C1CC(N2CCC(O)CC2)C(=O)N1c1ccc(Br)cc1 (centres undefined),inactive,
CCc1nnc(NCC(=O)N2CCc3ccccc32)s1,inactive,
C=CCc1c(C)nc(-c2ccccc2)nc1Nc1ccccc1O,inconclusive: -30.8%,
O=C(Cc1cnc2ncnn2c1)N1CCc2c([nH]c3ccccc23)C1c1ccccc1F (centres undefined),inactive,
Cc1ccc(Nc2nc(CSc3nnc(-c4ccncc4)n3-c3ccccc3C)cs2)cc1,inconclusive: -30.7%,
NC(=O)c1cc2ccccc2o/c1=N\NC(=O)c1ccco1,inactive,
COc1cccc(CNC(=O)Cc2csc3nc(-c4ccccc4)cn23)c1,inconclusive: -13.6% [at 46 µM],
CC(C)(O)C#Cc1ccc(C(=O)N2CCN(c3ccc([N+](=O)[O-])cc3)CC2)cc1,inconclusive: -38.5% [at 46 µM],
O=C1/C(=C\c2cccs2)Sc2ccc3ccccc3c21,inactive,
O=C(NC1CCCCC1)C1Cc2ccccc2CN1S(=O)(=O)c1ccc(F)cc1 (centres undefined),inactive,
CC(=O)c1cnc2cc(C)nn2c1C,inactive,
Cc1cc(-c2nc3ncccc3o2)ccc1N,inconclusive: -38.6%,
CC(C)CCn1c(CN2CCOCC2)nc2c1c(=O)n(C)c(=O)n2C,inactive,
Cc1cccc(/C=C/c2nc3ccccc3c(=O)n2Cc2ccccc2)c1,inconclusive: -44.4%,
COc1ccc(/C=N/Nc2nc(-c3cccc(S(=O)(=O)N4CCCC4)c3)cs2)c(OC)c1,,"inconclusive: 35.5 µM [fluorescent, single point]"
CC(=O)Nc1c(O)nc(SC/C=C/CSc2nc(O)c(NC(C)=O)c(=O)[nH]2)[nH]c1=O,inconclusive: -13% [at 46 µM],
Cc1cc(C)nc(SCc2ccc(C(=O)N/N=C/c3ccccc3C(=O)O)cc2)n1,inconclusive: 2.63% [at 46 µM],
CCOC(=O)c1[nH]nc(-c2cc(CC)c(O)cc2O)c1-c1cscn1,,"inconclusive: 10 µM [inhibitor, single point]"
Cc1ccc(C(=O)NCc2ccc3c(c2)CCN3C(=O)c2ccc(C)cc2)cc1,inconclusive: -24.3% [at 46 µM],
O=C(NCCc1ccccc1)c1ccco1,inactive,
CCOC(=O)Cn1nnnc1CN1CCN(c2ccc(OC)cc2)CC1,inconclusive: 22.2% [at 46 µM],
CCNC(=S)NNC(=O)c1csc2ccccc12,inconclusive: 19.1%,
Cc1ccc(Cn2cc(SCC(=O)Nc3nccs3)c3ccccc32)cc1,inactive,
CCOc1ccc(OCC)c(NC(=O)c2cnn(-c3ccc(F)cc3)c2C2CCN(C(=O)OC(C)(C)C)CC2)c1,inconclusive: -7.13% [at 46 µM],

SMILES,"ratio change, negative = inhibition",Potency
O=C(c1cc2c(s1)CCCC2)N1CCN(S(=O)(=O)c2ccccc2C(F)(F)F)CC1,,"inconclusive: 22.4 µM [fluorescent, single point]"
COc1ccc(-n2cc(CNC(C)c3ccncn3)c(-c3cccc(F)c3)n2)cc1 (centres undefined),inconclusive: 1.52% [at 46 µM],
Cc1ccc(-n2ncc3c(NC4CCCC4)ncnc32)cc1,,"inconclusive: 0.891 µM [inhibitor, full curve, poor fit]"
CCCCN(C)C(=O)c1oc2ccc(S(=O)(=O)N3CCCCCC3)cc2c1C,inconclusive: 33.4%,
Cc1ccc(CNC(=O)/C=C/c2c(Cl)cccc2Cl)cc1,inconclusive: -5.9%,
COc1ccc(-c2nn(-c3ccccc3)cc2C(=O)Nc2nc(CC(C)=O)ns2)cc1,inconclusive: -26.3%,
Oc1ccc(N=C/C=C/c2cccc(Br)c2)cc1-c1nc2ccccc2s1,,"inconclusive: 20 µM [fluorescent, partial curve, poor fit]"
CCCn1cc(S(=O)(=O)c2ccccc2)c(=O)c2cc(F)c(N3CCCCCC3)cc21,inconclusive: -15.2% [at 46 µM],
COc1ccc(OC)c(C(=O)CSc2nc3ncccc3[nH]2)c1,inconclusive: 1.21%,
COc1ccc(NC(=O)Cn2c(SCc3ccc(F)cc3)nc3cccnc32)c(OC)c1,inconclusive: -19% [at 46 µM],
Cc1cccc(Oc2sc(C(=O)c3ccccc3)c(N)c2C#N)c1,,"inconclusive: 35.5 µM [cytotoxic, single point]"
Cc1[nH]n(C2=NCCS2)c(=O)c1N=Nc1ccccc1,inconclusive: -35.7% [at 46 µM],
O=C(Cc1ccc(Cl)cc1)Nc1ncc([N+](=O)[O-])s1,,"inconclusive: 35.5 µM [fluorescent, single point]"
CS(=O)(=O)c1ccc(C(=O)Nc2ccccc2N2CCOCC2)c(Cl)c1,inactive,
C/C(=N\OCC(=O)Nn1c(=O)[nH]c2ccccc2c1=O)c1ccccc1,inactive,
CCCCC1=CC2=C(c3ccco3)C(=O)C(C)(OC(=O)c3ccc(OC)cc3)C(=O)C2=CN1CCc1ccccn1 (centres undefined),inconclusive: 24.6% [at 9.22 µM],
COc1ccc(-c2nc3c4ccccc4n(CC(=O)Nc4ccc(C(C)C)cc4)c(=O)n3n2)cc1,inconclusive: 17.4% [at 46 µM],
CC/C(=C1/C(=O)CC(C)(C)C(C(=O)OC)C1=O)N1CCCC1 (centres undefined),inconclusive: 1.94%,
COc1cc(OC)cc(C(=O)NCC(=O)N2CCC(C)CC2)c1,inconclusive: -3.36%,
Cc1[nH]c2ccccc2c1SCC(=O)NNC(=O)Nc1ccc(OC(F)(F)F)cc1,inactive,
C=CCc1c(C)[nH]c2c(OC)cccc2c1=S,inconclusive: -9.15% [at 46 µM],
COc1ccccc1C(=O)N1CCN(Cc2cn[nH]c2-c2ccc(F)cc2F)CC1,,"inconclusive: 1.41 µM [inhibitor, full curve]"
COc1ccc(CNC(=O)CC(C)n2nc(C)cc2C)cc1 (centres undefined),inactive,
O=c1c(N2CCN(c3ccccc3)CC2)csc2ccc(Cl)cc12,,"inconclusive: 35.5 µM [inhibitor, single point]"
O=C(CCSCc1cccc(Cl)c1)NCc1ccccc1Cl,inconclusive: -13.9% [at 46 µM],
Cc1cc(N2CCN(c3ccccc3)CC2)nc(-n2nc(C)cc2C)n1,inconclusive: -30.8%,
COc1cccc(-c2nccc(NCc3cccs3)n2)c1,inconclusive: -2.2%,

# Another view of part of the listing above:
SMILES	ratio change, negative = inhibition	Potency
Cc1[nH]n(C2=NCCS2)c(=O)c1N=Nc1ccccc1	inconclusive: -35.7% [at 46 µM]	
O=C(Cc1ccc(Cl)cc1)Nc1ncc([N+](=O)[O-])s1		inconclusive: 35.5 µM [fluorescent, single point]
CS(=O)(=O)c1ccc(C(=O)Nc2ccccc2N2CCOCC2)c(Cl)c1	inactive	
C/C(=N\OCC(=O)Nn1c(=O)[nH]c2ccccc2c1=O)c1ccccc1	inactive	

# Of the compounds above, 2 have bromine:
SMILES,"ratio change, negative = inhibition",Potency
O=C1CC(N2CCC(O)CC2)C(=O)N1c1ccc(Br)cc1 (centres undefined),inactive,
Oc1ccc(N=C/C=C/c2cccc(Br)c2)cc1-c1nc2ccccc2s1,,"inconclusive: 20 µM [fluorescent, partial curve, poor fit]"

# (list continues)

SMILES,"ratio change, negative = inhibition",Potency
Cc1ccc(C)c(NC(=S)NNC(=O)c2cc3c(s2)CCC(C)C3)c1 (centres undefined),inactive,
COc1cc(/C=C/C(=O)c2ccc(C)c([N+](=O)[O-])c2)cc(OC)c1O,,"inconclusive: 35.5 µM [cytotoxic, single point]"
Cn1cnc2c(NCc3ccccc3)nc(NCCO)nc21,inconclusive: -14.8%,
COc1ccc(/C=C2\COc3ccccc3C2=O)cc1OC,inconclusive: 166%,
Cc1ccc(CNC(=O)c2ccc(CS(=O)(=O)Cc3ccc(F)cc3)o2)cc1,inactive,
CCC(=O)Nc1ccc(C(=O)N/N=C/c2ccccc2[N+](=O)[O-])cc1,inactive,
Cc1cccc(N2CCN(S(=O)(=O)c3cn(C)c(C)n3)CC2)c1C,inconclusive: -17.2% [at 46 µM],
Cc1cc(CNC(=O)c2ccc(C)c([N+](=O)[O-])c2)c2ccccc2n1,,"inconclusive: 11.2 µM [inhibitor, partial curve, poor fit]"
Cc1ccc(SCCNC(=S)Nc2ccccc2)cc1,,"inconclusive: 35.5 µM [fluorescent, single point]"
Cc1ccc(-n2nc(C(=O)N3CCN(c4ccc(F)cc4)CC3)c(=O)n(C)c2=O)cc1,inconclusive: 14.8% [at 46 µM],
c1coc(-c2ccnc(-n3cccc3)n2)c1,inconclusive: 31.9% [at 46 µM],
COc1ccc(S(=O)(=O)N(CC(=O)Nc2ccc(F)c(Cl)c2)c2ccc(C)cc2)cc1OC,inconclusive: 23.3% [at 46 µM],
Cc1ccc2c(c1)[nH]c1c(N3CCN(Cc4ccc5c(c4)OCO5)CC3)ncnc12,,"inconclusive: 2.82 µM [falling, full curve, poor fit]"
CC(C)(C)c1ccc(C(=O)N2CCN(CCNC(=O)C(=O)NCc3ccccc3)CC2)cc1,,"inconclusive: 25.1 µM [fluorescent, single point]"
COc1cccc2c1C(=O)c1c(O)c3c(c(O)c1C2=O)C[C@@](O)(C(=O)CO)C[C@@H]3O[C@H]1C[C@H](N)[C@H](O)[C@H](C)O1,inconclusive: -79.9%,
O=C1C(=Cc2cccs2)C(=O)c2ccccc21,inactive,
O=C(c1cnn2c1NC(c1ccco1)CC2C(F)(F)F)N1CCN(c2cccc(Cl)c2)CC1 (centres undefined),inconclusive: -17.9%,
O=C(Nc1ccc(OC(F)(F)F)cc1)C1CCN(S(=O)(=O)c2ccc3[nH]c(=O)ccc3c2)CC1,inconclusive: 11.8% [at 46 µM],
O=C1CCC/C(=N\NC(=O)NC2CCCCC2)C1,inactive,
CC1(CCc2ccccc2)NC(=S)N(c2ccc(Cl)cc2)N1 (centres undefined),inconclusive: 3.18%,
CCCNC(=O)c1csc2c1CCCCC2,inactive,
CCC(CC)C(=O)OCC(=O)NC12CC3CC(CC(C3)C1)C2,inactive,
O=C(Nc1nnc(-c2ccc3c(c2)CCCC3)o1)c1ccc(Cl)cc1Cl,,"inconclusive: 12.6 µM [fluorescent, partial curve]"
Cc1ccccc1C(=O)NC1CC2CCC(C1)N2Cc1ccccc1 (centres undefined),inconclusive: 18.1% [at 46 µM],
Cc1[nH]n(-c2ccc([N+](=O)[O-])cc2)c(=O)c1C=NCCc1c(C)[nH]c2ccccc12,inactive,
